Source: PubChem BioAssay AID686943 (Drosophila RNAi Screening Center, 2013)
Aim: 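Fly genes whose loss alters ERK activation after insulin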 (primary screen). Cells: Drosophila S2R+ haemocyte-like cells expressing YFP-tagged ERK (Rolled). Knock-down reagent: long dsRNA against Drosophila genes. Conditions: insulin stimulation versus unstimulated cells; dose and duration not given. Measured: 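Antibody staining for doubly phosphorylated ERK divided by ERK-YFP signal, as plate z-scores, in insulin-treated and untreated cells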. Reading the numbers: replicate 1, z-score of dpERK with insulin and replicate 2, z-score of dpERK with insulin: higher = more active ERK per ERK-YFP after insulin; replicate 1, z-score of dpERK under basal conditions: higher = more basal active ERK per ERK-YFP; replicate 1, z-score of ERK-YFP with insulin: higher = more YFP-tagged ERK signal.
In all, the deposit lists about 23,000 reagents; below is an unselected part of those that have a named target and a result. 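Extra replicates exist only for a retested subset of genes; insulin dose and duration not given; both raised and lowered dpERK matter.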 Reagents against one gene are numbered here. A plus sign joins genes that one reagent is predicted to hit. Reagent sequences are not shown. Not stated in the record: the amount of reagent, the time to read-out.

gene knocked down | reagent no. | replicate 1, z-score of dpERK with insulin | replicate 2, z-score of dpERK with insulin | replicate 1, z-score of dpERK under basal conditions | replicate 1, z-score of ERK-YFP with insulin
l(2)k09848 | 1 | -0.33 | -0.21 | -1.92 | -0.95
CG3748 | 1 | 0.46 | 0.94 | 1.03 | 0.72
cysu | 1 | 0.54 | -0.06 | -1.19 | -0.2
boi | 1 | 0.58 | -0.58 | -0.28 | 0.06
boi | 2 | 0.46 | -0.04 | -0.26 | 0.37
CG32444 | 1 | 0.57 | -0.25 | 0.49 | -0.39
CG18476 | 1 | 0.89 | 0.07 | -0.58 | -0.88
Rassf | 1 | -0.48 | -0.8 | -0.4 | 0.18
CG10514 | 1 | -0.39 | -0.29 | 0.34 | -0.62
AGO2 | 1 | -7.43 | -3.79 | -2.24 | 9.5
AGO2 | 2 | -4.61 | -4.75 | -2.04 | 3.58
CG17931 + CG42446 | 1 | -0.08 | 0.18 | -0.28 | 0.35
CG17681 | 1 | -0.5 | -0.32 | -0.29 | -0.02
CG34183 | 1 | 1 | 0.68 | -1.03 | -0.63
CG32599 | 1 | 1.13 | 0.7 | -0.74 | -0.07

3 successive reagents already listed, quoted:
gene knocked down | reagent no. | replicate 1, z-score of dpERK with insulin | replicate 2, z-score of dpERK with insulin | replicate 1, z-score of dpERK under basal conditions | replicate 1, z-score of ERK-YFP with insulin
Rassf | 1 | -0.48 | -0.8 | -0.4 | 0.18
CG10514 | 1 | -0.39 | -0.29 | 0.34 | -0.62
AGO2 | 1 | -7.43 | -3.79 | -2.24 | 9.5

The listing continues.
gene knocked down | reagent no. | replicate 1, z-score of dpERK with insulin | replicate 2, z-score of dpERK with insulin | replicate 1, z-score of dpERK under basal conditions | replicate 1, z-score of ERK-YFP with insulin
Lip2 | 1 | 0.16 | 0.63 | 0.25 | -0.94
Lip2 | 2 | 0.2 | 0.33 | -0.07 | -0.73
Nup43 | 1 | 0.81 | -0.39 | -0.61 | -1.82
CG5245 | 1 | 0.41 | 0.46 | -0.19 | -0.12
CG42372 + CG30100 | 1 | -0.16 | -0.16 | -1.09 | -0.01
Cpr65Au | 1 | 0.09 | 0.93 | 0.61 | -0.11
Galphai | 1 | -0.73 | 0.35 | 0.72 | -0.07
Vps20 | 1 | -0.46 | 0.62 | 0.05 | 0.27
